# Measurements: patent US11839873B2, “Valveless fluidic switching flowchip and uses thereof” (Protein Fluidics, Inc., priority 2018, dated 2023)
# For at least one compound, name, drawing or mass did not settle the structure.
# Test system: THP-1 cells stimulated with PMA and LPS (IL-8, IL-1β, TNFα secretion)
# Test: THP-1 cell cytokine secretion assay, microfluidic flowchip ELISA
# Type: cell-based, human
compound,measurement,setting,value
COc1c(N2C[C@@H]3CCCN[C@@H]3C2)c(F)cc2c(=O)c(C(=O)O)cn(C3CC3)c12 [moxifloxacin],THP-1 cellular inflammation response as shown by upregulation of IL-8,"THP-1 cells stimulated with PMA and LPS for 20 hours at 37° C., concentration dependent effect of compound",clearly diminished
same,cytokine expression,"THP-1 cells treated with compound prior to PMA and LPS activation, cytokine secretion quantified",Concentration-dependent decreases
